Measured values reported in the supplement of paper PMC12067093, “Discovery and optimisation of a covalent ligand for TRIM25 and its application to targeted protein ubiquitination” (Chemical Science, 2025).
The other results are listed elsewhere or left out.

Chains of the proteins cited; added tags and fusions are not shown. Lines headed by an entry give the natural chain unless they say otherwise; changes in a name come on top.
UniProt Q9Y230, whole entry, looked up: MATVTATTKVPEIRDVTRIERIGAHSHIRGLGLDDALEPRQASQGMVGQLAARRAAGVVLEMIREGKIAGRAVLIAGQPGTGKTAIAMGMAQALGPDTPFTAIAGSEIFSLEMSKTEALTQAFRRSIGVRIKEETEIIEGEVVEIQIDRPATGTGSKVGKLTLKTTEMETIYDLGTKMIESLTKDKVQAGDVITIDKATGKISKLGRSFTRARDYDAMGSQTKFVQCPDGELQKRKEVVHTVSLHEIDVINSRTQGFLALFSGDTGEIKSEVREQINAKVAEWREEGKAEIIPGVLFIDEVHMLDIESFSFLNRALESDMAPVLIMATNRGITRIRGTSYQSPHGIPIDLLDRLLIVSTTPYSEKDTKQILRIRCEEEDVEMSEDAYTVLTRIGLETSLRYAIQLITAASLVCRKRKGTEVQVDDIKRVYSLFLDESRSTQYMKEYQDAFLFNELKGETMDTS
UniProt Q9Y3Z3: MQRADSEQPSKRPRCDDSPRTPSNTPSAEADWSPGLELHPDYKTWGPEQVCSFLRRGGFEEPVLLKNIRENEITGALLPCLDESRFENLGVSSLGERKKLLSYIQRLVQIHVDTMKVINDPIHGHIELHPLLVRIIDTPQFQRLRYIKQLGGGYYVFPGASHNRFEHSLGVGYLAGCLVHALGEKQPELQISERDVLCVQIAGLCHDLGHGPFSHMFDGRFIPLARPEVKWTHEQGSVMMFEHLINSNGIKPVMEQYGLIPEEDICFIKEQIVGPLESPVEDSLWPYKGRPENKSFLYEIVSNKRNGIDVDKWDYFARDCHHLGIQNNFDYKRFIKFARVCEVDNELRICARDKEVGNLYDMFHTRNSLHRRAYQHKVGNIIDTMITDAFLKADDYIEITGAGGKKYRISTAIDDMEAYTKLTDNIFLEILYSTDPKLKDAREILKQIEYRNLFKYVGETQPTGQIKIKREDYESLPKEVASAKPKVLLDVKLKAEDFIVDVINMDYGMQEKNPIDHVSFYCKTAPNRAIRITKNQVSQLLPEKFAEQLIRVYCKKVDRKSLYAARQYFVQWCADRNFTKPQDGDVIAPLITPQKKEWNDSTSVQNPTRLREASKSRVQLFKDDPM
UniProt Q9Y224: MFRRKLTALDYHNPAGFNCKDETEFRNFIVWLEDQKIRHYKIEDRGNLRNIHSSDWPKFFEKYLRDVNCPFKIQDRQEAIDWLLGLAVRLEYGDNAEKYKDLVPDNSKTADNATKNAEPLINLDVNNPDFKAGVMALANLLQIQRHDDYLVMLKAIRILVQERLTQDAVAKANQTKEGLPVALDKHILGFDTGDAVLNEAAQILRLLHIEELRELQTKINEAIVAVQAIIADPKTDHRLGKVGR
UniProt Q9NTJ5: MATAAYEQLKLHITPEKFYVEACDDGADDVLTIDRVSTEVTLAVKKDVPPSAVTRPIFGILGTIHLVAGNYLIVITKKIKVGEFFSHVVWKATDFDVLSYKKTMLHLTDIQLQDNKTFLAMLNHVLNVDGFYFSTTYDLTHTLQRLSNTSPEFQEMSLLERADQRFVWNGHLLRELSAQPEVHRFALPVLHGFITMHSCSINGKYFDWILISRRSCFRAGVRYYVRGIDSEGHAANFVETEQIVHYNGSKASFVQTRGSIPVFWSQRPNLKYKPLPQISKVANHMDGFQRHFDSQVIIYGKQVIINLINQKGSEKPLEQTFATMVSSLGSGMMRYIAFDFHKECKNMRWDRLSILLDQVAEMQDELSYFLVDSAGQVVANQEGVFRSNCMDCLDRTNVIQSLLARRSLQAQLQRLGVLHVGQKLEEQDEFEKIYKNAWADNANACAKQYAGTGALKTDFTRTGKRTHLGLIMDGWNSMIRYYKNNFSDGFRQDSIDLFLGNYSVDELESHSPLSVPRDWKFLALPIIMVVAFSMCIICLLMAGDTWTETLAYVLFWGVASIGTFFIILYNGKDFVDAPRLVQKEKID
UniProt Q9UBE0: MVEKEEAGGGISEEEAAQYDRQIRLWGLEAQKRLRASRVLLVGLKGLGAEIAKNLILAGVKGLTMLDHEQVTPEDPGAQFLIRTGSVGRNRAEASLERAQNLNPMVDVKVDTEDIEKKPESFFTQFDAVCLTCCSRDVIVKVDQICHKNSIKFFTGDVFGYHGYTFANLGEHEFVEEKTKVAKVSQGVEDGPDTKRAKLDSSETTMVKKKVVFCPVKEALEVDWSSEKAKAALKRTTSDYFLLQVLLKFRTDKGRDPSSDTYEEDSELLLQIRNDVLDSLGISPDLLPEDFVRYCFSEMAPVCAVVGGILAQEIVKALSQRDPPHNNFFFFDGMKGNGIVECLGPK
UniProt Q9Y3A4: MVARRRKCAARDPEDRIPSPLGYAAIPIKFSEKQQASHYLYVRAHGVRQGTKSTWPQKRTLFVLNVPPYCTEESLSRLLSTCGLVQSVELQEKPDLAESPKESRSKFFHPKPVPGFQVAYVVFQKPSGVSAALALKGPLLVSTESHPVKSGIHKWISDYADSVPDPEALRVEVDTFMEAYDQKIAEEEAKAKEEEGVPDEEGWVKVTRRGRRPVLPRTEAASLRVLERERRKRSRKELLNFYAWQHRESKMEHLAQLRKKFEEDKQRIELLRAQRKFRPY
UniProt Q5JTH9: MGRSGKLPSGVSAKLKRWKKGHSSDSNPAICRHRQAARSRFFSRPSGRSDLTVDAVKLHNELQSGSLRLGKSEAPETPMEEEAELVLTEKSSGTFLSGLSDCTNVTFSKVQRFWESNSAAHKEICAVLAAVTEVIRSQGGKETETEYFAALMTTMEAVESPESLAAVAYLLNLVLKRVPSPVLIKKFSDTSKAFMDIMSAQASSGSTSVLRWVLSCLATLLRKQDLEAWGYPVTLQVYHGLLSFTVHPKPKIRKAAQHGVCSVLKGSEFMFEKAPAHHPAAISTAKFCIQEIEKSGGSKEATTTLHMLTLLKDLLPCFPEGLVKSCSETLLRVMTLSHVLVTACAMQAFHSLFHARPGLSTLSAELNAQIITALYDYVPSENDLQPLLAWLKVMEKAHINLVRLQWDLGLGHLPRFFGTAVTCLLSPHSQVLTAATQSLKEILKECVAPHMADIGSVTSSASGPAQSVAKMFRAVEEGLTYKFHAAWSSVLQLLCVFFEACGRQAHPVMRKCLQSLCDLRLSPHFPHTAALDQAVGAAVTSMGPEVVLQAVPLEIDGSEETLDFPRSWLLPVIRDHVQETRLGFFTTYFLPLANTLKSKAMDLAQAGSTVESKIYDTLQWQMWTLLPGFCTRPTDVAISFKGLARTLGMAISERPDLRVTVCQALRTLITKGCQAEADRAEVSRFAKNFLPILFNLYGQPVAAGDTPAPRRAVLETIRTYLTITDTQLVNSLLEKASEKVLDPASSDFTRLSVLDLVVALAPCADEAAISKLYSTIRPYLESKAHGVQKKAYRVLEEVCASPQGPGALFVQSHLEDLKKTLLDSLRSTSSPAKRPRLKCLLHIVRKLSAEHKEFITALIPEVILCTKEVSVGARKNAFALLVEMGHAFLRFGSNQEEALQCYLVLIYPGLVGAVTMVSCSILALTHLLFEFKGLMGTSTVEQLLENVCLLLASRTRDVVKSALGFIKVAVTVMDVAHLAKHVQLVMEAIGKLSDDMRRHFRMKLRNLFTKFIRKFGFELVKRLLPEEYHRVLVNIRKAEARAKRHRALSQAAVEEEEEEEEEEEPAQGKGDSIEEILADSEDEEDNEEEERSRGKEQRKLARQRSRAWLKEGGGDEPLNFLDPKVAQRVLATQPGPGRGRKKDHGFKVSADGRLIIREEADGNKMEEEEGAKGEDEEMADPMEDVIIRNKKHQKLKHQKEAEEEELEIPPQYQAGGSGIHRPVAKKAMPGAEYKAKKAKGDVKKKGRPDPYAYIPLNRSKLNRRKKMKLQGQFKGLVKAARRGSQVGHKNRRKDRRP
UniProt O00442: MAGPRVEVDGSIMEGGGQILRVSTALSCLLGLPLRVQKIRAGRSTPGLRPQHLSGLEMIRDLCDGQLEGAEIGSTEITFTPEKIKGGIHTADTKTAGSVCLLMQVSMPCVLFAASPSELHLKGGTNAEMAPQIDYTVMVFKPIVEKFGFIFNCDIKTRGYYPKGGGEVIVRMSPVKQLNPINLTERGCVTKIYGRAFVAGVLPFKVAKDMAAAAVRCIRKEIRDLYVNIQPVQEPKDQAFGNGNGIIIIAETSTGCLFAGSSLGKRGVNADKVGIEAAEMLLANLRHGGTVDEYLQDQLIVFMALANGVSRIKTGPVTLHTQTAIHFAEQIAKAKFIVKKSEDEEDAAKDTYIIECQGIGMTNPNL

Compound: Cc1cc(ccc1-c1ccccc1)C(=O)N1CCCN(CC1)C(=O)CCl [compound 10]
Test: probe-labelled cysteine peptide fold change vs DMSO (competition) (log2 fold change); higher = less target engagement (more negative = stronger competition)
Details: THP-1, incubation time: 4 h
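Note: competitive profiling in live THP-1 cells: cysteine peptides tagged with an iodoacetamide desthiobiotin (IA-DTB) probe, intensity after compound treatment relative to DMSO-treated cells.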

**Q.** With “RPS12_P25398_56_RQAHLCVLASNCDEPMYVK (UniProt P25398)” as the target, how does the “probe-labelled cysteine peptide fold change” value (10 µM) read?
**A.** -0.0352

**Q.** What about the “probe-labelled cysteine peptide fold change” value (50 µM) of the same target?
**A.** -0.192

**Q.** What does the source list for “RUVBL2_Q9Y230_375_IRCEEEDVEMSEDAYTVLTR (UniProt Q9Y230)”?
**A.** probe-labelled cysteine peptide fold change (10 µM): 0.196; probe-labelled cysteine peptide fold change (50 µM): 0.00188

**Q.** “SAMHD1_Q9Y3Z3_51_TWGPEQVCSFLR (UniProt Q9Y3Z3)” was tested. Which “probe-labelled cysteine peptide fold change” value (10 µM) did it give?
**A.** 0.115

**Q.** And the “probe-labelled cysteine peptide fold change” value (50 µM)?
**A.** 0.161

**Q.** Which “probe-labelled cysteine peptide fold change” value (10 µM) does the source give for “RPS3A_P61247_96_NCLTNFHGMDLTR (UniProt P61247)” here?
**A.** -0.125

**Q.** What about the “probe-labelled cysteine peptide fold change” value (50 µM) of the same target?
**A.** 0.0144

**Q.** Which results are given for “RTRAF_Q9Y224_19_LTALDYHNPAGFNCK (UniProt Q9Y224)”?
**A.** probe-labelled cysteine peptide fold change (10 µM): 0.338; probe-labelled cysteine peptide fold change (50 µM): 0.446

**Q.** How did the “probe-labelled cysteine peptide fold change” value (10 µM) turn out when “SACM1L_Q9NTJ5_199_FALPVLHGFITMHSCSINGK (UniProt Q9NTJ5)” was run?
**A.** -0.213

**Q.** And the “probe-labelled cysteine peptide fold change” value (50 µM)?
**A.** 0.458

**Q.** How did the “probe-labelled cysteine peptide fold change” value (10 µM) turn out when “RPS12_P25398_92_LGEWVGLCK (UniProt P25398)” was run?
**A.** 0.0151

**Q.** What about the “probe-labelled cysteine peptide fold change” value (50 µM) of the same target?
**A.** -0.186

**Q.** How did the “probe-labelled cysteine peptide fold change” value (10 µM) turn out when “RPS6_P62753_12_KLNISFPATGCQK (UniProt P62753)” was run?
**A.** 0.00268

**Q.** What about the “probe-labelled cysteine peptide fold change” value (50 µM) of the same target?
**A.** 1.18

**Q.** “SAMHD1_Q9Y3Z3_15_CDDSPR (UniProt Q9Y3Z3)” was tested. Which “probe-labelled cysteine peptide fold change” value (10 µM) did it give?
**A.** -0.0354

**Q.** And the “probe-labelled cysteine peptide fold change” value (50 µM)?
**A.** -0.0447

**Q.** “RPS2_P15880_229_GCTATLGNFAK (UniProt P15880)” was tested. Which “probe-labelled cysteine peptide fold change” value (10 µM) did it give?
**A.** 0.138

**Q.** And the “probe-labelled cysteine peptide fold change” value (50 µM)?
**A.** -0.203

**Q.** With “SAE1_Q9UBE0_342_GNGIVECLGPK (UniProt Q9UBE0)” as the target, how does the “probe-labelled cysteine peptide fold change” value (10 µM) read?
**A.** -0.195

**Q.** And the “probe-labelled cysteine peptide fold change” value (50 µM)?
**A.** -0.0807

**Q.** With “RRP7A_Q9Y3A4_8_CAARDPEDR (UniProt Q9Y3A4)” as the target, how does the “probe-labelled cysteine peptide fold change” value (10 µM) read?
**A.** -0.0213

**Q.** And the “probe-labelled cysteine peptide fold change” value (50 µM)?
**A.** -0.237

**Q.** “RRP12_Q5JTH9_673_GCQAEADRAEVSR (UniProt Q5JTH9)” was tested. Which “probe-labelled cysteine peptide fold change” value (10 µM) did it give?
**A.** -0.0456

**Q.** What about the “probe-labelled cysteine peptide fold change” value (50 µM) of the same target?
**A.** 0.0518

**Q.** Which “probe-labelled cysteine peptide fold change” value (10 µM) does the source give for “RPS5_P46782_66_AQCPIVER (UniProt P46782)” here?
**A.** -0.181

**Q.** And the “probe-labelled cysteine peptide fold change” value (50 µM)?
**A.** -0.176

**Q.** With “RTCA_O00442_28_VSTALSCLLGLPLR (UniProt O00442)” as the target, how does the “probe-labelled cysteine peptide fold change” value (10 µM) read?
**A.** 0.165

**Q.** What about the “probe-labelled cysteine peptide fold change” value (50 µM) of the same target?
**A.** 0.159
